Experiment in all cases: cross-linking; in vivo cross-linking in the E. coli heterologous system; cellular extracts treated with formaldehyde, final 1% (w/w); 5 µg on 12% SDS-PAGE, Western blot with antibodies against Lo18
For orientation: Immunoblotting shows a protein as a band on a membrane.

Test [1] deals with Lo18 small heat shock protein of Oenococcus oeni (Oenococcus oeni) (UniProt P94898).
The target in test [2] is Lo18 R99D (Oenococcus oeni) (UniProt P94898).
Test [3] addresses Lo18 G82V (Oenococcus oeni) (UniProt P94898).
Test [4] concerns the target Lo18 E60K (Oenococcus oeni) (UniProt P94898).
The target of test [5] is Lo18 T79V (Oenococcus oeni) (UniProt P94898).

Residue numbers refer to the chain shown, from its start. Names and notes keep the numbering of the source. Results are given in words; binding and its absence hold for the method and conditions named. In cells and extracts the contact can be indirect. Some binding calls cover weakened binding; strength is not graded here.

B1: Lo18 small heat shock protein of Oenococcus oeni (protein, UniProt P94898 1-148)
chain: MANELMDRNDGLMDVSDMMGNLMNNFFGPRDGLWESARHNNSIMRTDISENDKEYGLKIELPGLDKKDIKIDYSNDNLTVSGVLSSKAEEKDKKNNVVRSERRYGNYSRSYYVPGVDENKISAKYENGILNLTLPKSDESQTHHIEIQ
Take B1: the binding entry in test [1] was “binds”.

B2: Lo18 R99D (protein, UniProt P94898 1-148)
chain: B1 chain with R99D
With B2, the binding result in test [2] was “binds weakly”.

B3: Lo18 G82V (protein, UniProt P94898 1-148)
chain: B1 chain with G82V
Turning to B3, in test [3], the binding entry is listed as “binds”.

B4: Lo18 E60K (protein, UniProt P94898 1-148)
chain: B1 chain with E60K
On to B4, for which, in test [4], the binding result is recorded as “binds weakly”.

B5: Lo18 T79V (protein, UniProt P94898 1-148)
chain: B1 chain with T79V
As to B5, in test [5], the binding entry is recorded as “binds weakly”.

(Values after PMC10624808.)
